# From article PMC12062478, “Screening herbal and natural product libraries to aid discovery of novel allosteric modulators of human P2X7” (Purinergic Signalling, 2024)
# Tested on: Calf thymus DNA
# Assay: Cell-free DNA YO-PRO-1 fluorescence interference assay
# Conditions: calf thymus DNA 1 µg/mL, 100 nM–100 µM compound
row,Compound,Interference with YO-PRO-1 fluorescence
1,"O=C(O[C@@H]1Cc2c(O)cc(O)cc2O[C@@H]1c1cc(O)c(O)c(O)c1)c1cc(O)c(O)c(O)c1 [EGCG, epigallocatechin gallate]",displayed interference
2,COc1cc2ccc(=O)oc2cc1O [Scopoletin],no interference
3,COc1c2ccoc2cc2oc(=O)ccc12 [Bergapten],no interference
4,Methyl syringate,no interference
5,O=c1c(O)c(-c2ccc(O)c(O)c2)oc2cc(O)cc(O)c12 [Quercetin],displayed interference
6,"O=C1CSC(=O)N1C(CCc1ccncc1)COc1ccc(-c2cccc([N+](=O)[O-])c2)cc1 (centres unmarked) [AZ11645373, reference compound]",no interfering effect
7,O=c1c(-c2ccc(O)cc2)coc2cc(O)cc(O)c12 [Genistein],displayed interference
8,"O=C(O[C@@H]1Cc2c(O)cc(O)cc2O[C@@H]1c1ccc(O)c(O)c1)c1cc(O)c(O)c(O)c1 [ECG, epicatechin gallate]",displayed interference
9,"O=c1c(O)c(-c2ccc(O)cc2)oc2cc(O)cc(O)c12 [Kampferol, kaempferol]",displayed interference
10,COc1ccc2cc3[n+](cc2c1OC)CCc1cc2c(cc1-3)OCO2 [Berberine],no interference
11,Cc1cc(O)c2c(c1)C(=O)c1cc(O)cc(O)c1C2=O [Emodin],displayed interference
